Source: article PMC3200332
These are yes or no findings as the source states them, for the method shown. Binding seen in cells or lysates may run through a third protein. Binding calls can cover weak binding; strength is not graded here. Tags and fused reporters may be left off the sequences shown.

Target: T1, Pyrococcus furiosus soluble hydrogenase I small subunit (SSU, PF0893) with N-terminal His9 tag (Pyrococcus furiosus) (UniProt Q8U2E5)
T1 sequence: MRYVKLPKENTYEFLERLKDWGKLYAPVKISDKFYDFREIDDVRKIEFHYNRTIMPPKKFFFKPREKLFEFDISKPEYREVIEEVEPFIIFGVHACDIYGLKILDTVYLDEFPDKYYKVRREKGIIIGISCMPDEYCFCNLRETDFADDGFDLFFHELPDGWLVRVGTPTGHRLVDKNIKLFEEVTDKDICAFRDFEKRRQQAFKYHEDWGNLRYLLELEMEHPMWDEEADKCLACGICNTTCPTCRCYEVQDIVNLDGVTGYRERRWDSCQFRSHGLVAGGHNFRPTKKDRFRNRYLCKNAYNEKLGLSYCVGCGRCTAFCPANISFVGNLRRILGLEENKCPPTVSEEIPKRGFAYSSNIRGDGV
Experiment: SEC; purified OE-SHI Dimer preparation (co-purified complex from P. furiosus) on a calibrated Superdex S200 sizing column; apparent Mr; both purified

Substance: Pyrococcus furiosus soluble hydrogenase I large subunit (LSU, PF0894)
- binding: binds
